Consider 27 compounds from the supplement of paper PMC10735217.

Where “and” joins values, the source holds several entries; their conditions need not be identical. Equal entries are not always repeated. Structures can show the parent of a compound that is named as a salt. The list shows a part of the results. Repeats in this data set agree poorly, so a single value says little.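 In a drug-repurposing library screen, luminescence reads luciferase driven by eight TEAD-binding elements, stably integrated into human kidney-derived cells. Compounds scoring over five robust Z scores above the plate mean are called hits.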

The assay deals with HEK293A TEAD-LUC reporter. The experiment in a line: TEAD-luciferase reporter activity (YAP activation), robust Z score vs plate; higher = stronger YAP/TEAD activation. As to conditions: 24 h.

For the compound `Nc1nc(/C(=C/CC(=O)O)C(=O)N[C@@H]2C(=O)N3C(C(=O)O)=CCS[C@H]23)cs1` [Ceftibuten hydrate], the TEAD-luciferase reporter activity is inactive: 0.544 (compound concentration: 200 nM) and inactive: -0.697 (compound concentration: 10 uM).

Take `CNC(=O)c1c(-c2ccc(F)cc2)oc2cc(NS(C)(=O)=O)c(OC(C)C)cc12`: the TEAD-luciferase reporter activity (compound concentration: 200 nM) was inactive: 1.3, the TEAD-luciferase reporter activity (compound concentration: 2 uM) is inactive: -1.16 and the TEAD-luciferase reporter activity (compound concentration: 10 uM) is inactive: 0.667.

As to `CCCCc1nc(CCCC)n(Cc2ccc(-c3ccccc3-c3nnn[nH]3)cc2)n1`, the TEAD-luciferase reporter activity is inactive: 0.278 (compound concentration: 200 nM), inactive: -1.32 (compound concentration: 2 uM) and inactive: 0.763 (compound concentration: 10 uM).

As for `C[C@H]1O[C@@H](n2cc(-c3ccccc3)c3c(Nc4ccc(F)cc4)ncnc32)[C@H](O)[C@@H]1O`, the TEAD-luciferase reporter activity by setting is: (compound concentration: 200 nM) inactive: -0.0542; (compound concentration: 2 uM) inactive: -0.518; (compound concentration: 10 uM) inactive: 2.77.

As for `Cc1ccc2c(n1)Oc1ccc(C(C)C(=O)OCC(=O)N(C)C)cc1C2` (centres undefined), the TEAD-luciferase reporter activity is inactive: -1.3 (compound concentration: 200 nM), inactive: 2.95 (compound concentration: 2 uM) and active: 5.7 (compound concentration: 10 uM).

With `CC[C@H]1NC(=O)[C@@H](NC(=O)c2ncccc2O)[C@@H](C)OC(=O)[C@H](c2ccccc2)NC(=O)[C@@H]2CC(=O)[C@H](CS[C@@H]3C[NH+]4CCC3CC4)CN2C(=O)[C@H](Cc2ccc(N(C)C)cc2)N(C)C(=O)[C@@H]2CCCN2C1=O` [Quinupristin (mesylate)], the TEAD-luciferase reporter activity is inactive: -0.632 (compound concentration: 200 nM), inactive: 1.81 (compound concentration: 2 uM) and inactive: 0.134 (compound concentration: 10 uM).

On to `CCc1ccc([C@@H]2O[C@H](CO)[C@@H](O)[C@H](O)[C@H]2O)cc1Cc1ccc2c(c1)OCCO2` [Licogliflozin], for which the TEAD-luciferase reporter activity is inactive: 0.138 (compound concentration: 200 nM) and inactive: 0.0492 (compound concentration: 10 uM).

Regarding `O=C1NC2(CCN(Cc3cccc4ccccc34)CC2)Oc2ccccc21`, the TEAD-luciferase reporter activity is, setting by setting: (compound concentration: 200 nM) inactive: -0.24; (compound concentration: 10 uM) inactive: 0.0471.

With `CN1C(=O)[C@H](O)C(c2ccccc2)C1C(O)c1ccccc1` (some centres undefined), the TEAD-luciferase reporter activity is inactive: -0.61 (compound concentration: 200 nM), inactive: -0.436 (compound concentration: 2 uM) and inactive: -0.463 (compound concentration: 10 uM).

Regarding `CN[C@H](CC(C)C)C(=O)N[C@@H](C(=O)N[C@H](Cc1ccccc1)C(=O)N[C@H](Cc1ccccc1)C(=O)N[C@H](CC(C)C)C(N)=O)C(C)C`, the TEAD-luciferase reporter activity was inactive: 4.04 (compound concentration: 200 nM), inactive: 0.831 (compound concentration: 2 uM) and inactive: 1.47 (compound concentration: 10 uM).

Consider `CCN(CC)CCn1c(=O)c(Cc2cc(OC)c(OC)c(OC)c2)nc2ccccc21`, for which the TEAD-luciferase reporter activity (compound concentration: 200 nM) is inactive: 0.194, the TEAD-luciferase reporter activity (compound concentration: 2 uM) is inactive: -2.54 and the TEAD-luciferase reporter activity (compound concentration: 10 uM) is inactive: -1.09.

As for `CCc1[nH]c(=O)[nH]c1C(=O)c1ccc(-n2ccnc2)cc1`, the TEAD-luciferase reporter activity was inactive: 0.316 (compound concentration: 200 nM), inactive: -1.3 (compound concentration: 2 uM) and inactive: -1.15 (compound concentration: 10 uM).

For the compound `COc1cccc(CN2CCC(N3CCCNC3=O)CC2)c1`, the TEAD-luciferase reporter activity runs as follows: (compound concentration: 200 nM) inactive: 1.21; (compound concentration: 10 uM) inactive: 2.18.

Take `CN(CCOC(=O)COc1ccc(Cl)cc1)C12C[C@H]3C[C@@H](C1)C[C@@H](C2)C3`: the TEAD-luciferase reporter activity is inactive: -3.16 (compound concentration: 200 nM), inactive: -1.73 (compound concentration: 2 uM) and inactive: -2.22 (compound concentration: 10 uM).

As for `[Na][Cl]`, the TEAD-luciferase reporter activity runs as follows: (compound concentration: 200 nM) inactive: 1.29; (compound concentration: 2 uM) inactive: -1.33; (compound concentration: 10 uM) inactive: -0.326.

As to `CCCCOc1ccc(C(=O)CCN2CCCCC2)cc1` [dyclonine HCl, BEMA], where the note is “compound concentration: 2 uM”, the TEAD-luciferase reporter activity is inactive: -1.17.

Turning to `CCCCOc1ccc(C(=O)CCN2CCCCC2)cc1` [dyclonine HCl, BEMA, Atrix], the TEAD-luciferase reporter activity (compound concentration: 200 nM) was inactive: -0.108 and the TEAD-luciferase reporter activity (compound concentration: 10 uM) was inactive: 0.567.

Turning to `O=P(O)(O)OC[C@H]1O[C@@H](n2cnc3c(NCc4ccccc4)ncnc32)[C@H](O)[C@@H]1O`, the TEAD-luciferase reporter activity is inactive: -0.435 (compound concentration: 200 nM), inactive: -0.132 (compound concentration: 2 uM) and inactive: 1.14 (compound concentration: 10 uM).

Turning to `Cc1ccc(C(=O)c2ccc(CC(=O)NCC(=O)O)n2C)cc1` [tolmetin glycine amide], the TEAD-luciferase reporter activity is, setting by setting: (compound concentration: 200 nM) inactive: -0.22; (compound concentration: 2 uM) inactive: -0.213; (compound concentration: 10 uM) inactive: 2.63.

In the case of `Cc1ccc2c(c1)C(=O)c1ccccc1CS2`, the TEAD-luciferase reporter activity was inactive: -0.467 (compound concentration: 200 nM), inactive: 1.1 (compound concentration: 2 uM) and inactive: -1.06 (compound concentration: 10 uM).

With `CN(C)S(=O)(=O)c1cccc(-c2cs/c(=N\c3ccccc3)n2Cc2ccccc2)c1`, the TEAD-luciferase reporter activity was inactive: -2.17 (compound concentration: 200 nM), inactive: -2.03 (compound concentration: 2 uM) and inactive: -1.4 (compound concentration: 10 uM).

With `CN1CC[C@@]23NC(=O)C[C@@H](c4cc(Cl)ccc4O2)C3C1` (some centres undefined) [lortalamine], the TEAD-luciferase reporter activity reads like this: (compound concentration: 200 nM) inactive: -0.476; (compound concentration: 2 uM) inactive: -1.06; (compound concentration: 10 uM) inactive: -0.884.

On to `CN(C)[C@@H]1CCN(c2ccc3nc(-c4c(N)c5ccccc5[nH]c4=O)[nH]c3c2)C1`, for which the TEAD-luciferase reporter activity is inactive: 0.172 (compound concentration: 200 nM), inactive: -1.08 (compound concentration: 2 uM) and active: 8.66 (compound concentration: 10 uM).

In the case of `Nc1nc2ccccc2n1Cc1ccc(C(F)(F)F)cc1`, the TEAD-luciferase reporter activity was inactive: -0.925 (compound concentration: 200 nM), inactive: -2.04 (compound concentration: 2 uM) and inactive: 2.96 (compound concentration: 10 uM).

Turning to `c1ccc(P(CCCP(c2ccccc2)c2ccccc2)c2ccccc2)cc1`, the TEAD-luciferase reporter activity runs as follows: (compound concentration: 200 nM) inactive: -1.16; (compound concentration: 2 uM) inactive: -0.8 and inactive: -0.862; (compound concentration: 10 uM) inactive: -0.497.

On to `O=C(Nc1cnc(Cl)nc1)c1ccc(F)c(F)c1`, for which the TEAD-luciferase reporter activity was inactive: -0.862 (compound concentration: 200 nM), inactive: 3.45 (compound concentration: 2 uM) and inactive: 0.366 (compound concentration: 10 uM).

Turning to `CCNc1ncn(Cc2ccc(OC)c(OC3CCCC3)c2)c2nc(C(C)C)nc1-2`, the TEAD-luciferase reporter activity by setting is: (compound concentration: 200 nM) inactive: 0.239; (compound concentration: 2 uM) inactive: -0.317; (compound concentration: 10 uM) inactive: 0.575.
